Experimental data: PMC8994398
Results are given in words; binding and its absence hold for the method and conditions named. In cells and extracts the contact can be indirect. These calls come from enrichment with a bait or labelling near it, and not all partners need be listed.

Protein sequences, listed by entry. Tags and fused reporters are not part of them.
UniProt P50851: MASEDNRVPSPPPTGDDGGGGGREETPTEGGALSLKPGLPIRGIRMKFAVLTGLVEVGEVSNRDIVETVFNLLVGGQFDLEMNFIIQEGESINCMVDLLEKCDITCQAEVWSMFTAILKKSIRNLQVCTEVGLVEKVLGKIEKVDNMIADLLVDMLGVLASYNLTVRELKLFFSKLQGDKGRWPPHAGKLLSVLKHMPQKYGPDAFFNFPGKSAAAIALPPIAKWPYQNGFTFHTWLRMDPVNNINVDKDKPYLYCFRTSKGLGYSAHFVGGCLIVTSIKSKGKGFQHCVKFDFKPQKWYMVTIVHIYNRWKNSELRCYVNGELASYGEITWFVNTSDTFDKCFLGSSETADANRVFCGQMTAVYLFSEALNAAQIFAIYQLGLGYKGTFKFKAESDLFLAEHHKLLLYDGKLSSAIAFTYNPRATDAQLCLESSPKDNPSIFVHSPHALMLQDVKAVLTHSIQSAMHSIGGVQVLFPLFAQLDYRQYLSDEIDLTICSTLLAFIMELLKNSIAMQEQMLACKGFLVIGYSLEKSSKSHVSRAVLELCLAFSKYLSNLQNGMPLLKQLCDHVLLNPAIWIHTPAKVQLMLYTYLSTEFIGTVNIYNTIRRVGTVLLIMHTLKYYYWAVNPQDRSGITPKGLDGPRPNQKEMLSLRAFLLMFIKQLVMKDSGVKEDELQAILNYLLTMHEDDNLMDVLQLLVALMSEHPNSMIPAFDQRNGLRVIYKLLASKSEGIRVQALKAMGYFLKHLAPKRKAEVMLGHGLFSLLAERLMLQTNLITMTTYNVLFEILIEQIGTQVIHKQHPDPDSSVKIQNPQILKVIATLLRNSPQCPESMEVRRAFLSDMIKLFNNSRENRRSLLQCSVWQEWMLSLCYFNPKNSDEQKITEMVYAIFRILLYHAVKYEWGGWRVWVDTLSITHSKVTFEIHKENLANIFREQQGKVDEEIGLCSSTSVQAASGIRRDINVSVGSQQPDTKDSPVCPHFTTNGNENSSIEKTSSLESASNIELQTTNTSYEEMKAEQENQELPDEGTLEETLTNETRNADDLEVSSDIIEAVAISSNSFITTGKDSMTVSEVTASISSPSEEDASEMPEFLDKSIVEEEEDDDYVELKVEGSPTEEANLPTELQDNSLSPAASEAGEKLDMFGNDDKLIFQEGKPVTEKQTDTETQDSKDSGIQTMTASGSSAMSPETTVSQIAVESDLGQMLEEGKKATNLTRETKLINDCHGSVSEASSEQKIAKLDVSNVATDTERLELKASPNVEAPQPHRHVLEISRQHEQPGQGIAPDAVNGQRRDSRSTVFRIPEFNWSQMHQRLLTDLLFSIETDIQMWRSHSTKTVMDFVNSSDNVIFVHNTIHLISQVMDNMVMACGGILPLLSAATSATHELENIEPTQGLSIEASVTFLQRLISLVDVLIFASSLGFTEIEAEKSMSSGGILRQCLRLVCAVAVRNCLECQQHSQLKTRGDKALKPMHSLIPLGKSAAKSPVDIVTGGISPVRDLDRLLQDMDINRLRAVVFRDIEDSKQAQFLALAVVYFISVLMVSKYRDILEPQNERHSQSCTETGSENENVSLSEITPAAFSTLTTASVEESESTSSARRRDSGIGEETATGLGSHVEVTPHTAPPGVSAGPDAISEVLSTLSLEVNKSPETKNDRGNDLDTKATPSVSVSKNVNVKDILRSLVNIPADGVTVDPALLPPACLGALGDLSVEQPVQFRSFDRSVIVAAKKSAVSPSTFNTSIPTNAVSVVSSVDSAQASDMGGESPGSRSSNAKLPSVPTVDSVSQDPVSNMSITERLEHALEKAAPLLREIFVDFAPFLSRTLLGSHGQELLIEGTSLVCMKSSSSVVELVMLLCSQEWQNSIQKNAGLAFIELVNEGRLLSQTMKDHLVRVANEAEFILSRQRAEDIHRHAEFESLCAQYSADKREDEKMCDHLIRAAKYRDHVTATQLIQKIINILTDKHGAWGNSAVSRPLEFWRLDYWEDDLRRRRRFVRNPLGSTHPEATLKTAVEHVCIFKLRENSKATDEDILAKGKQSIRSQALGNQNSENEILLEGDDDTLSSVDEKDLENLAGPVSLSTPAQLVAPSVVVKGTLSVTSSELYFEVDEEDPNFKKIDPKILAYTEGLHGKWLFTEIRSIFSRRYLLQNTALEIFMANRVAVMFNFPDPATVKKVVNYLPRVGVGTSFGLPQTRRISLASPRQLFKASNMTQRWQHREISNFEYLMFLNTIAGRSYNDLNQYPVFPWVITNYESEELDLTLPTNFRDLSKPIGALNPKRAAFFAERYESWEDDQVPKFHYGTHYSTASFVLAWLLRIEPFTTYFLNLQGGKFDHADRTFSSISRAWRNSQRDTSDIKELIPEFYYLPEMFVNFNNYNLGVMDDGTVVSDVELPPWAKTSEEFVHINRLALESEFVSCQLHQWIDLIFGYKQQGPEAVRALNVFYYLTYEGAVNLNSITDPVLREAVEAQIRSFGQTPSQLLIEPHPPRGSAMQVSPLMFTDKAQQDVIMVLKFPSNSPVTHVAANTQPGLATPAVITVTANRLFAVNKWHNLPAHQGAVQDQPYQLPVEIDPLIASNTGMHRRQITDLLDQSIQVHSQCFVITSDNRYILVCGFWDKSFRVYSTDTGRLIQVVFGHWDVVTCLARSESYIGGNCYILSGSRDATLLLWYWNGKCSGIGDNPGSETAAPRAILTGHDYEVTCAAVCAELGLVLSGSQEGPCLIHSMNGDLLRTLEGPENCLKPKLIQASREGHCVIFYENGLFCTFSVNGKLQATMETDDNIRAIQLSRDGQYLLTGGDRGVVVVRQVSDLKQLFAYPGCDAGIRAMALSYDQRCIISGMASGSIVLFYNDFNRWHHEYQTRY

Biological target: T1, ATF1-T184D (activating transcription factor 1, Thr184Asp mutant) (UniProt P18846)
T1 sequence: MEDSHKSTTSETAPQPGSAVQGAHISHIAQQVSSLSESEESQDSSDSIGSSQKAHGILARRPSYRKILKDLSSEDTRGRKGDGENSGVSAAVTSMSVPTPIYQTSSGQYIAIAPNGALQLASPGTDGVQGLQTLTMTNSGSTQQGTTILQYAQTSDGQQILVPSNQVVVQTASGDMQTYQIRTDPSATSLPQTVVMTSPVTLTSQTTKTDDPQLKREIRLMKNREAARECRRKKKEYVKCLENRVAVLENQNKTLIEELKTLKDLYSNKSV
Assay: affinity purification with mass spectrometry; lysate of transfected MGC803 cells incubated with ATF1 antibody overnight at 4 °C, Protein A/G magnetic beads 1 h at RT, eluate separated by SDS-PAGE, silver staining, mass spectrometry; ATF1-T184D compared with ATF1-WT

| binding | Molecule |
| --- | --- |
| binds | LRBA (from UniProt P50851 1-2863) |
| binds | S100A8 (protein, UniProt P05109 1-93) MLTELEKALNSIIDVYHKYSLIKGNFHAVYRDDLKKLLETECPQYIRKKGADVWFKELDINTDGAVNFQEFLILVIKMGVAAHKKSHEESHKE |
